Source: PubChem BioAssay AID1224826 (NIAID, 2016)

Test: 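Regulators of Tlr4 signalling leading to Tnf-alpha expression in macrophages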 (primary screen)
System: RAW264.7 G9 macrophages from mouse bearing reporters for p65 (GFP) and the Tnf promoter (mCherry)
Reagent: siRNA pool against mouse genes, 100 nM
Time to read-out: 16 h of LPS stimulation, after 2 days of siRNA transfection
Treatment: bacterial lipopolysaccharide (Salmonella minnesota R595), 10 ng/ml
Read-out: 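Nuclear mCherry signal of the Tnf promoter reporter measured by imaging after background removal, scaled to each plate median and turned into robust z-scores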
Direction: Tnf reporter robust z-score: higher = stronger Tnf promoter reporter signal after LPS
Rule for the call: 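a well counts as active at a score of -1.3 or below (Tlr4 knock-down control median) or above 3 (raised signal); controls and wells holding fewer than 50 cells are excluded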
Calls: active = Tnf reporter clearly lowered or raised; inactive = no clear change in Tnf reporter
In all, the deposit lists about 17,000 reagents; below is an unselected part. Over the whole deposit, about 1,110 (6.6%) are marked active. 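Active means lowered or raised reporter signal; replicate intensities are raw and not normalised per plate.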 Not all columns of the deposit are shown.

Or1b1 (GeneID 259053) — Tnf reporter robust z-score: -0.56; fewer than 50 cells in well: enough cells in well; Call: inactive
Cox6b2 (GeneID 333182) — Tnf reporter robust z-score: -0.56; fewer than 50 cells in well: enough cells in well; Call: inactive
Ccdc186 (GeneID 213993) — Tnf reporter robust z-score: -0.13; fewer than 50 cells in well: enough cells in well; Call: inactive
Or4n4 (GeneID 258659) — Tnf reporter robust z-score: -1.16; fewer than 50 cells in well: enough cells in well; Call: inactive
Pias3 (GeneID 229615) — Tnf reporter robust z-score: -0.3; fewer than 50 cells in well: enough cells in well; Call: inactive
Chrnb2 (GeneID 11444) — Tnf reporter robust z-score: -0.64; fewer than 50 cells in well: enough cells in well; Call: inactive
Map4k1 (GeneID 26411) — Tnf reporter robust z-score: -0.88; fewer than 50 cells in well: enough cells in well; Call: inactive
Vps9d1 (GeneID 72325) — Tnf reporter robust z-score: 1.96; fewer than 50 cells in well: enough cells in well; Call: inactive
Ruvbl1 (GeneID 56505) — Tnf reporter robust z-score: 0.42; fewer than 50 cells in well: enough cells in well; Call: inactive
Stmn1 (GeneID 16765) — Tnf reporter robust z-score: -0.49; fewer than 50 cells in well: enough cells in well; Call: inactive
Comp (GeneID 12845) — Tnf reporter robust z-score: 0.94; fewer than 50 cells in well: enough cells in well; Call: inactive
Mmgt1 (GeneID 236792) — Tnf reporter robust z-score: -0.05; fewer than 50 cells in well: enough cells in well; Call: inactive
